PubChem BioAssay AID652243, Drosophila RNAi Screening Center – 2013

- Assay: 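Knock-downs that decrease or increase androgen receptor reporter signal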 (primary screen)
- Cell system: Drosophila S2R+ cells
- Reagents: long dsRNA against Drosophila genes
- Time to read-out: 72 h (48 h, then 24 h hormone)
- Treatment: synthetic androgen R1881 at 10 nM for 24 h
- Measured: 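Per-well raw luminescence of the androgen-driven firefly reporter and of the Renilla control, two replicates each, without normalisation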
- Scale: firefly reporter light: higher = more light from androgen-responsive reporter; Renilla control light: higher = more constitutive control signal (cell number, transfection)
- Active means: 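Across duplicate plates, a knock-down whose log firefly/Renilla ratio shifted a set fold down or up from the GFP/LacZ control mean was a hit; the downward cut appears as both 1.5 and 3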
- Calls: active = hit: reporter lowered or raised; inactive = no hit
The deposit covers about 24,000 reagents; below is an unselected part of those that have a named target and a result. Over the whole deposit, 246 (1%) got an active call. 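Plates not normalised; calls are printed but the firefly/Renilla ratio behind them is not deposited; fold cut for lowering reported inconsistently.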 Raw values are not corrected between plates. A number with no mark means an inactive call. Names joined by + are all predicted targets of the reagent. Not stated in the record: the amount of reagent.

After knock-down of sgll [DRSC15442], the record shows firefly reporter light, replicate 1 = 61394; firefly reporter light, replicate 2 = 83960; Renilla control light, replicate 1 = 1.47e6; Renilla control light, replicate 2 = 1.61e6.
Depletion of CG13324 [DRSC06361] gave: firefly reporter light, replicate 1 = 3.64e5; firefly reporter light, replicate 2 = 2.81e5; Renilla control light, replicate 1 = 1.07e6; Renilla control light, replicate 2 = 1.57e6.
With knock-down of GABA-B-R2 [DRSC14134], the record shows firefly reporter light, replicate 1 = 4.69e5; firefly reporter light, replicate 2 = 5.20e5; Renilla control light, replicate 1 = 1.46e6; Renilla control light, replicate 2 = 1.47e6.
Against GABA-B-R2 [DRSC28127] the deposit lists firefly reporter light, replicate 1 = 3.85e5; firefly reporter light, replicate 2 = 3.55e5; Renilla control light, replicate 1 = 7.60e5; Renilla control light, replicate 2 = 7.72e5.
Depletion of IFT57 [DRSC00720] gave: firefly reporter light, replicate 1 = 66538; firefly reporter light, replicate 2 = 77424; Renilla control light, replicate 1 = 7.46e5; Renilla control light, replicate 2 = 5.09e5.
With knock-down of CCHa1-R [DRSC06456] the results were firefly reporter light, replicate 1 = 69584; firefly reporter light, replicate 2 = 1.05e5; Renilla control light, replicate 1 = 1.19e6; Renilla control light, replicate 2 = 1.19e6.
Knock-down of CCHa1-R [DRSC06715] gave: firefly reporter light, replicate 1 = 1.22e5; firefly reporter light, replicate 2 = 1.27e5; Renilla control light, replicate 1 = 2.45e6; Renilla control light, replicate 2 = 2.45e6.

Targets above whose target name starts with G or g (2):
GABA-B-R2 [DRSC14134] — firefly reporter light, replicate 1: 4.69e5; firefly reporter light, replicate 2: 5.20e5; Renilla control light, replicate 1: 1.46e6; Renilla control light, replicate 2: 1.47e6
GABA-B-R2 [DRSC28127] — firefly reporter light, replicate 1: 3.85e5; firefly reporter light, replicate 2: 3.55e5; Renilla control light, replicate 1: 7.60e5; Renilla control light, replicate 2: 7.72e5

The results go on:
Against lncRNA:CR32385 [DRSC22966], the entry reads firefly reporter light, replicate 1 = 5.82e5; firefly reporter light, replicate 2 = 9.62e5; Renilla control light, replicate 1 = 1.26e6; Renilla control light, replicate 2 = 1.96e6.
After knock-down of Desat2 [DRSC15919] the results were firefly reporter light, replicate 1 = 1.78e5; firefly reporter light, replicate 2 = 2.63e5; Renilla control light, replicate 1 = 1.60e6; Renilla control light, replicate 2 = 2.14e6.
Desat2 [DRSC25894] gave firefly reporter light, replicate 1 = 3.62e5; firefly reporter light, replicate 2 = 4.64e5; Renilla control light, replicate 1 = 7.43e5; Renilla control light, replicate 2 = 7.17e5.
For CG31368 [DRSC14949] the deposit lists firefly reporter light, replicate 1 = 1.11e5; firefly reporter light, replicate 2 = 1.07e5; Renilla control light, replicate 1 = 1.49e6; Renilla control light, replicate 2 = 1.78e6.
Knock-down of CG31368 [DRSC14951] came out at: firefly reporter light, replicate 1 = 74330; firefly reporter light, replicate 2 = 76487; Renilla control light, replicate 1 = 4.94e5; Renilla control light, replicate 2 = 6.39e5.
CG13912 [DRSC08381] scored firefly reporter light, replicate 1 = 47975; firefly reporter light, replicate 2 = 52396; Renilla control light, replicate 1 = 8.77e5; Renilla control light, replicate 2 = 7.43e5.
For pre-mod(mdg4)-W + pre-mod(mdg4)-Y + mod(mdg4) + 3 more [DRSC16328] the deposit lists firefly reporter light, replicate 1 = 2.37e5; firefly reporter light, replicate 2 = 2.59e5; Renilla control light, replicate 1 = 3.46e6; Renilla control light, replicate 2 = 3.43e6.
After knock-down of VhaM9.7-b [DRSC11841] the results were firefly reporter light, replicate 1 = 3.25e5; firefly reporter light, replicate 2 = 2.38e5; Renilla control light, replicate 1 = 2.56e6; Renilla control light, replicate 2 = 2.04e6.
Depletion of CG32440 [DRSC11480] came out at: firefly reporter light, replicate 1 = 7.37e5; firefly reporter light, replicate 2 = 8.72e5; Renilla control light, replicate 1 = 7.24e5; Renilla control light, replicate 2 = 5.97e5.
With knock-down of mTTF [DRSC01909], the screen gave firefly reporter light, replicate 1 = 1.48e5; firefly reporter light, replicate 2 = 1.88e5; Renilla control light, replicate 1 = 1.43e6; Renilla control light, replicate 2 = 1.68e6.
Silencing of CG13066 [DRSC09949] came out at: firefly reporter light, replicate 1 = 3.29e5; firefly reporter light, replicate 2 = 3.12e5; Renilla control light, replicate 1 = 3.02e6; Renilla control light, replicate 2 = 2.09e6.
Against Rpe [DRSC06407], the values are firefly reporter light, replicate 1 = 8.76e5; firefly reporter light, replicate 2 = 8.06e5; Renilla control light, replicate 1 = 1.94e6; Renilla control light, replicate 2 = 1.91e6.
After knock-down of Tspo + rempA [DRSC00533] the results were firefly reporter light, replicate 1 = 6.21e5; firefly reporter light, replicate 2 = 8.09e5; Renilla control light, replicate 1 = 1.75e6; Renilla control light, replicate 2 = 1.02e6.
For CG2736 [DRSC04314] the deposit lists firefly reporter light, replicate 1 = 7.35e5; firefly reporter light, replicate 2 = 7.25e5; Renilla control light, replicate 1 = 1.30e6; Renilla control light, replicate 2 = 1.65e6.
